# Data: patent US5073542A, “CPF peptide compositions and their use in inhibiting growth of target cells or a virus” (Magainin Sciences Inc., priority 1990, dated 1991)
# Part of at least one peptide drawing is inferred or uncertain, most often the ends. Ends that are not written are not given here.
# Assays:
# Format in all cases: cell-based
# [1] = system: E. coli; test: Minimal inhibitory concentration, anti-microbial spectrum
# [2] = system: A. castellani; test: Sensitivity of protozoa, minimal disruptive concentration; conditions: physical disruption, osmotic swelling
# [3] = system: E. coli; test: Zone of inhibition on lawn of E. coli; conditions: 50 ug of peptide
Sequence,MINIMAL INHIBITORY CONCENTRATION [1],Minimal Disruptive Concentration [2],Zone of Inhibition on Lawn of E. coli [3]
GFGSFLGLALKAALKIGANALGGAPQQ [CPF (I)],10 to 50 µg/mL,2 µg/mL,15 mm
GFASFLGKALKAALKIGANLLGGTPQQ [CPF (II)],10 to 50 µg/mL,2 µg/mL,15 mm
